These results are taken from the supplement of paper PMC7125110.

Sequences and labels used below:
B1: glmS ribozyme (parent)
chain: AUAAAAGCGCCAGAACUACAGAAAUGUAGUUGACGAGGAGGAGGUUUAUCGAAUUUUCGGCGGAUGCCUCCAAA

± gives the standard error. Many of these values have a large error.

The variants in one data set derive from B1. Briefly: kcat; higher = faster cleavage; RNA array. As to conditions: with glucosamine-6-phosphate. In short, it runs like this:
(§1)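 The measurements used barcoded ribozyme variants on sequenced MiSeq chips, transcribed in situ by E. coli RNA polymerase and tracked at 37 °C with a hybridised Cy3 probe. Glucosamine-6-phosphate, 40 μM to 10 mM in HEPES/KCl/Mg(OAc)2 buffer, was flowed in while tiles were imaged over ~14 h. Baseline-normalised signals, also normalised to non-cleaving reference variants, gave per-tile medians that were fit to one- or two-exponential decays for kobs. kcat and KM resulted from weighted Michaelis–Menten fits across concentrations.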
The kcat is the maximal rate divided by the concentration of active sites. As for G13C A14U C68U, the kcat turned out to be 1.07e-05 ± 1.2e-06 s⁻¹. On to U31C G37U, for which the kcat is < 1e-05 s⁻¹. In the case of U47G U57G C61G C67U, the kcat is 4.79e-05 ± 3.5e-05 s⁻¹. In the case of U31A U55G, the turnover number (kcat) was 0.0116 ± 0.0067 s⁻¹. On to G32C C70A, for which the kcat is 1.5e-05 ± 8.1e-06 s⁻¹. A48G U54G: the kcat turned out to be 0.000141 ± 9.6e-06 s⁻¹. For A39U U45A, the turnover number (kcat) came to 0.023 ± 0.013 s⁻¹.

Regarding G7A G38A G63U C70G, the kcat was determined as 6.39e-05 ± 3.6e-05 s⁻¹. On to A36C G60A, for which the turnover number (kcat) is < 1e-05 s⁻¹. As for C16A G29C, the turnover number (kcat) came to 0.00401 ± 0.0015 s⁻¹.

Consider G37A C50G C71A, for which the turnover number (kcat) is 5.67e-05 ± 3.8e-05 s⁻¹. In the case of U30C C58U C67G C71A, the kcat came out at 0.000162 ± 9.1e-05 s⁻¹. Take G32A C67A: the catalytic constant (kcat) amounted to 0.000956 ± 0.00011 s⁻¹. On to A6U U30A, for which the kcat was found to be 3.27e-05 ± 4.2e-06 s⁻¹. As for G59C C61G, the kcat was < 1e-05 s⁻¹. With G13U U57C, the kcat came to 4.31e-05 ± 6.8e-06 s⁻¹. In the case of A15G U30G C70U, the kcat came to 0.00172 ± 0.0012 s⁻¹. Turning to A14C U55A C68A, the kcat is 3.34e-05 ± 2.5e-05 s⁻¹. In the case of U45A C70G, the kcat amounted to 0.000743 ± 0.0004 s⁻¹. Turning to U49A C50G C71U, the kcat amounted to 1.88e-05 ± 4.4e-06 s⁻¹. For the variant A15G C71A, the kcat was 0.00238 ± 0.0015 s⁻¹.

Another data set covers variants of B1. Description: KM; higher = weaker cofactor use; RNA array. To be noted: with glucosamine-6-phosphate. In short, it runs like this: as §1
A word on the KM: it is the concentration of substrate that gives half-maximal velocity. Take U56C C58G: the Michaelis-Menten constant (KM) was 3700 ± 3700 µM. In the case of U31C G37U, the KM was 160 ± 82 µM. Consider U31A U55G, for which the Michaelis constant (KM) was determined as 2170 ± 1500 µM.

For the variant C16A U30A, the KM worked out at 1480 ± 790 µM. For C10U C71U, the KM turned out to be 1800 ± 1000 µM.

For G40U U46C, the KM was 2420 ± 530 µM.

On to A15C U57A, for which the KM came out at 2770 ± 750 µM. As to G43A, the Michaelis-Menten constant (KM) worked out at 1560 ± 420 µM.

Regarding C11U U45C, the KM amounted to 1980 ± 1300 µM. On the same count and under the same terms, for U65C C67G the value was 193 ± 110 µM; for G13U G41A, 3540 ± 600 µM; for A42G U65A, 1560 ± 860 µM.

In the case of U46G U47A, the KM stood at 2200 ± 1400 µM.

Take G29A G40U: the KM was found to be 1130 ± 630 µM. For the variant G60A, the Michaelis-Menten constant (KM) worked out at 457 ± 330 µM. With G60C, the KM is 1990 ± 1700 µM. Take C11U A53C: the KM was 3780 ± 1300 µM. On to A12C G29A, for which the Michaelis constant (KM) was 2420 ± 1400 µM.

Consider A15G G41C, for which the KM turned out to be 2170 ± 310 µM.

As to G40A U65A, the KM came to 2690 ± 980 µM.

With U49G U55G, the KM was 1400 ± 250 µM. With A48G U54G, the KM stood at 761 ± 180 µM. Same read-out and setting: with U30C U46G the figure was 5040 ± 1000 µM; with A52G C70A, 59.1 ± 34 µM.

As for A39U U45A, the KM worked out at 1320 ± 950 µM. For C11G A12C, the KM was 3940 ± 2000 µM. U45C A53G: the KM was 3250 ± 1900 µM.

C10A G51U G63C: the KM was 731 ± 360 µM. G29A U30A: the KM is 4350 ± 2400 µM. Same read-out and setting: with G40C U47G the figure was 1190 ± 440 µM; with C16A G29C, 1940 ± 970 µM; with C16U U65C, 2290 ± 1100 µM.

As for G32C, the KM was determined as 3460 ± 110 µM. For G32A, the Michaelis constant (KM) was found to be 4250 ± 750 µM. For U54A G59U, the Michaelis constant (KM) amounted to 23800 ± 5000 µM.

On to G13A U69C, for which the KM is 3190 ± 2300 µM.

As for U31A A39G, the Michaelis-Menten constant (KM) came out at 4340 ± 1300 µM. For G32A C67A, the Michaelis constant (KM) was determined as 2730 ± 630 µM. The same measure, in the same setting: for A6U U30A the value was 1060 ± 730 µM; for G59U C71U, 1450 ± 860 µM; for A6U A12C, 5730 ± 4100 µM.

With G13U U57C, the KM was determined as 975 ± 620 µM. On to U55A U65C C67A, for which the Michaelis-Menten constant (KM) was 242 ± 200 µM. For the variant A39U, the Michaelis constant (KM) stood at 3040 ± 720 µM. Turning to A39G U45A, the Michaelis-Menten constant (KM) is 581 ± 220 µM. As for C16U G40C, the KM was 1020 ± 220 µM. Turning to A12U, the KM worked out at 1340 ± 230 µM.

Take G32A C58U: the Michaelis constant (KM) came out at 1170 ± 720 µM. Still for that read-out and setting: for G38C G66U the value was 27.3 ± 24 µM. In the case of G41C C71A, the KM was found to be 609 ± 480 µM. Take G43A A53C: the KM was determined as 20700 ± 1600 µM. Turning to U45A C70G, the Michaelis-Menten constant (KM) was 1100 ± 980 µM.

With A33C C58U, the KM came to 38.4 ± 24 µM.

In the case of G29U C68U, the KM turned out to be 1710 ± 230 µM.

On to A48G A52G, for which the Michaelis constant (KM) was 919 ± 460 µM. In the case of G43A U45A, the KM is 2720 ± 100 µM. Take G40C A52U: the KM was 857 ± 810 µM.

Variants of B1 are the subject of the next data set. Briefly: self-cleavage kobs at 10000 uM GlcN6P; higher = faster cleavage; RNA array. To be noted: with glucosamine-6-phosphate. The essentials: as §1
Take U56C C58G: the “self-cleavage kobs at 10000 uM GlcN6P” value amounted to 2.02e-05 ± 1.3e-05 s⁻¹. For the variant U47G U57G C61G C67U, the “self-cleavage kobs at 10000 uM GlcN6P” value came out at 2.75e-05 ± 1.9e-05 s⁻¹. Still for that read-out and setting: for U30C U46G the value was 2.18e-05 ± 1.2e-05 s⁻¹; for G43A A53C, 2.16e-05 ± 1.2e-05 s⁻¹.

Variants of B1 are the subject of a further data set. Briefly: self-cleavage kobs at 40 uM GlcN6P; higher = faster cleavage; RNA array. To be noted: with glucosamine-6-phosphate. The essentials:
as §1
As for U47G U57G C61G C67U, the “self-cleavage kobs at 40 uM GlcN6P” value was determined as 4.11e-05 ± 2.4e-05 s⁻¹. For C11U A53C, the “self-cleavage kobs at 40 uM GlcN6P” value amounted to 1.71e-05 ± 1.7e-05 s⁻¹. On to A15G G41C, for which the “self-cleavage kobs at 40 uM GlcN6P” value worked out at 1.82e-05 ± 1e-05 s⁻¹. With C16U U65C, the “self-cleavage kobs at 40 uM GlcN6P” value was determined as 2.51e-05 ± 1.9e-05 s⁻¹. In the case of U30C C58U C67G C71A, the “self-cleavage kobs at 40 uM GlcN6P” value was determined as 3.63e-05 ± 3.2e-05 s⁻¹.

Variants of B1 are the subject of another data set. Description: self-cleavage kobs at 640 uM GlcN6P; higher = faster cleavage; RNA array. As to conditions: with glucosamine-6-phosphate. The essentials:
as §1
As for C10U C71U, the “self-cleavage kobs at 640 uM GlcN6P” value was found to be 1.6e-05 ± 8.8e-06 s⁻¹. The same measure, in the same setting: with G59U C71U the figure was 2.66e-05 ± 1.7e-05 s⁻¹; with A6U A12C, 1.63e-05 ± 1.5e-05 s⁻¹.

The variants in the next data set derive from B1. Briefly: self-cleavage kobs at 2500 uM GlcN6P; higher = faster cleavage; RNA array. To be noted: with glucosamine-6-phosphate. In short, it runs like this:
as §1
In the case of U65C C67G, the “self-cleavage kobs at 2500 uM GlcN6P” value came to 4.33e-05 ± 3.4e-05 s⁻¹. Regarding G7A G38A G63U C70G, the “self-cleavage kobs at 2500 uM GlcN6P” value was determined as 5.18e-05 ± 3.5e-05 s⁻¹. As to U54A G59U, the “self-cleavage kobs at 2500 uM GlcN6P” value was 1.88e-05 ± 1.4e-05 s⁻¹.

As to A6U U30A, the “self-cleavage kobs at 2500 uM GlcN6P” value came out at 2.69e-05 ± 1.5e-05 s⁻¹. With A15G U30G C70U, the “self-cleavage kobs at 2500 uM GlcN6P” value amounted to 0.00252 ± 0.0014 s⁻¹.

In a further data set the parent is B1. Description: self-cleavage kobs at 160 uM GlcN6P; higher = faster cleavage; RNA array. To be noted: with glucosamine-6-phosphate. The essentials:
as §1
As for A48G U54G, the “self-cleavage kobs at 160 uM GlcN6P” value turned out to be 2.48e-05 ± 1.4e-05 s⁻¹. On the same count and under the same terms, with G32C the figure was < 1e-05 s⁻¹; with G41C C71A, 1.26e-05 ± 1.2e-05 s⁻¹; with U49A C50G C71U, 2.28e-05 ± 2.1e-05 s⁻¹.
